Laboratory results from patent US7112654B2, “Ligand for vascular endothelial growth factor receptor” (Supratek Pharma Inc., priority 2001, dated 2006).
At least one structure is not confirmed: it was looked up by name or label, or the drawing left a doubt.

Experiment: Partitioning of peptide in pluronic F127 micelles, fluorescence dependence method
Format: physicochemical
Settings: substance 0.001 mM in pluronic F127 0.001%-3% in PBS pH 7.5, 37° C., 4 hrs

For `O=C1OC2(c3ccc(O)cc3Oc3cc(O)ccc32)c2ccccc21` [Fluorescein], the “Partitioning in F127 (partitioning constant P)” value was 40.
